Results deposited as PubChem BioAssay AID1053208 (Peter MacCallum Cancer Centre, 2014).

Assay: 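Find knock-downs that sensitise mouse osteosarcoma cells to doxorubicin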 (primary screen)
Cells: mouse osteosarcoma cells, early-passage culture from an engineered mouse model of fibroblastic bone tumour
Reagents: siRNA pool against mouse genes, 40 nM
Timing: about 120 h (48 h before drug, then 72 h with drug)
Treatment: doxorubicin 100 nM for 72 h, roughly 30-40% inhibitory dose
Read-out: 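Luminescent ATP signal taken as viability with or without 100 nM doxorubicin for 72 h; mean of two wells set against non-targeting siRNA and turned into robust z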
Scale: viability z-score with doxorubicin and doxorubicin viability vs non-targeting: higher = more viable cells under doxorubicin; viability z-score without drug: higher = more viable cells with knock-down alone; z-score of drug to no-drug ratio: higher = less drug sensitisation by knock-down
Rule for the call: 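a pool counts as active when its viability z-score with doxorubicin is -2 or below and its z-score without drug lies between -2 and 2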
Shown is an unselected part of about 17,000 reagents. 788 of all reagents (4.7%) were called active. 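Calls rest on z-score classes alone; an extra cut-off of viability at most 70% of control was not applied to them.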 A number with no mark means an inactive call. No sequences are given here.

combined z-score class | viability z-score with doxorubicin | viability z-score without drug | z-score of drug to no-drug ratio | doxorubicin viability vs non-targeting | gene
no change with or without drug | 0.11 | -0.17 | 0.34 | 0.95 | Cdca2
no change with or without drug | -0.67 | -1.18 | 0.22 | 0.88 | Ndrg3
no change with or without drug | -0.67 | -0.51 | -0.22 | 0.88 | Fgf18
no change with or without drug | -0.22 | 0.34 | -0.34 | 0.92 | Trappc12
no change with or without drug | -0.45 | 0 | -0.34 | 0.9 | Ercc1
no change with or without drug | -1.12 | 0.34 | -1.24 | 0.84 | Wnt11
no change with or without drug | 0.22 | 0.34 | 0.11 | 0.96 | Cyp39a1
no change with or without drug | -1.8 | 1.52 | -2.59 | 0.78 | Iqcg
no change with or without drug | -0.45 | 0.51 | -0.67 | 0.9 | Kdm5c
no change with or without drug | 1.35 | 1.85 | 0.22 | 1.06 | Rnf208
no change with or without drug | -0.22 | 0.84 | -0.67 | 0.92 | Tgoln2
no change with or without drug | -1.12 | -0.84 | -0.56 | 0.84 | Prpf3
low cell count without drug only | -0.22 | -2.02 | 1.46 | 0.92 | Hpd
no change with or without drug | -0.22 | -1.18 | 0.79 | 0.92 | Atp6v0b
low cell count with doxorubicin only (active) | -2.02 | 0.51 | -2.25 | 0.76 | Pacrgl
no change with or without drug | 0.67 | 1.18 | 0 | 1 | Tbce
low cell count with doxorubicin only (active) | -2.25 | -0.17 | -2.14 | 0.74 | Ugt1a2
no change with or without drug | -0.67 | 0.84 | -1.12 | 0.88 | Afap1l2
no change with or without drug | -0.79 | -0.67 | -0.22 | 0.87 | Or4b1
no change with or without drug | -1.12 | -0.17 | -1.01 | 0.84 | Rnf25

Part of the list above in another layout.
{"gene": "Hpd", "combined z-score class": "low cell count without drug only", "viability z-score with doxorubicin": -0.22, "viability z-score without drug": -2.02, "z-score of drug to no-drug ratio": 1.46, "doxorubicin viability vs non-targeting": 0.92}
{"gene": "Atp6v0b", "combined z-score class": "no change with or without drug", "viability z-score with doxorubicin": -0.22, "viability z-score without drug": -1.18, "z-score of drug to no-drug ratio": 0.79, "doxorubicin viability vs non-targeting": 0.92}
